Structures can show the parent of a compound that is named as a salt. Some of the results follow. Hit calls seldom repeat between salt and free forms of one compound.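 Kinases were expressed as nanoluciferase fusions in K562 cells and luminescence was read every 4 h between 2 and 18 h as percent of control, DMSO set to 100% and a positive control to 0%. A time point counts as decreased when the signal drops significantly (2 sigma). The hit call is the authors' own, does not follow from the count of time points alone, and its rule is not shown.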
Columns and labels:
Assay in all cases: kinase-Nluc reporter destabilization hit call (1 = scored as downregulated) (binary); higher = compound decreases kinase abundance
Conditions in all cases: K562; 2-18 h
CDK7 = CDK7 (UniProt P50613)
CDK9 = CDK9 (UniProt P50750)
CHEK2 = CHEK2 (UniProt O96017)
CSF1R = CSF1R (UniProt P07333)
CSK = CSK (UniProt P41240)
CSNK1A1 = CSNK1A1 (UniProt P48729)
CSNK1D = CSNK1D (UniProt P48730)
DDR1 = DDR1 (UniProt Q08345)
DYRK1B = DYRK1B (UniProt Q9Y463)
DYRK2 = DYRK2 (UniProt Q92630)
EGFR = EGFR (UniProt P00533)
EGFR_G719S = EGFR_G719S (UniProt P00533)
EGFR_G719S_T790M = EGFR_G719S_T790M (UniProt P00533)
EGFR_L718V = EGFR_L718V (UniProt P00533)
EGFR_L858R = EGFR_L858R (UniProt P00533)
EGFR_L861Q = EGFR_L861Q (UniProt P00533)
EGFR_T790M = EGFR_T790M (UniProt P00533)
EPHA2 = EPHA2 (UniProt P29317)
ERBB3 = ERBB3 (UniProt P21860)
[1] = molecular target: ERBB4_R711C (clone: ERBB4_mut) (UniProt Q15303)

Sequences of proteins named here, by UniProt entry; tags and fusion partners are left off. A change or cut given only in a name is not applied to a line headed by its entry.
UniProt P50613: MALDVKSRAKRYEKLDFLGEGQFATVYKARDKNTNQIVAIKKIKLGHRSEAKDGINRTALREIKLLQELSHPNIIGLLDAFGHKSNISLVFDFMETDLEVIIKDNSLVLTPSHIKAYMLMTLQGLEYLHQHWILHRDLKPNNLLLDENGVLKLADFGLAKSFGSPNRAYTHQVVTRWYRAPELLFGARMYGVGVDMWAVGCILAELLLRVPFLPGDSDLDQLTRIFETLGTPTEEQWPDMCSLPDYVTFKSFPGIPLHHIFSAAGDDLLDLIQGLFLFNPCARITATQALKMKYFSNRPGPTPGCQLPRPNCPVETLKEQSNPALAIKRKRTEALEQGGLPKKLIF
UniProt P50750, whole entry: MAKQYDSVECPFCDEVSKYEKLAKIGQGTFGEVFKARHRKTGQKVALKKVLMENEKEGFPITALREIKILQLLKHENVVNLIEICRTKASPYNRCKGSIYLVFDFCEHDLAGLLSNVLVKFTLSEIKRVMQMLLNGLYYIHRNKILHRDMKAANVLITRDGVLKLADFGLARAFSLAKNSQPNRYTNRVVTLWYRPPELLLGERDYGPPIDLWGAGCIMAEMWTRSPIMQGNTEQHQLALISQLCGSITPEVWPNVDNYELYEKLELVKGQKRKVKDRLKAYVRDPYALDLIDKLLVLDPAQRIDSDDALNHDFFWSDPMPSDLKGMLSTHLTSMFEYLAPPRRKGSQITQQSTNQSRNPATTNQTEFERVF
UniProt P07333, whole entry: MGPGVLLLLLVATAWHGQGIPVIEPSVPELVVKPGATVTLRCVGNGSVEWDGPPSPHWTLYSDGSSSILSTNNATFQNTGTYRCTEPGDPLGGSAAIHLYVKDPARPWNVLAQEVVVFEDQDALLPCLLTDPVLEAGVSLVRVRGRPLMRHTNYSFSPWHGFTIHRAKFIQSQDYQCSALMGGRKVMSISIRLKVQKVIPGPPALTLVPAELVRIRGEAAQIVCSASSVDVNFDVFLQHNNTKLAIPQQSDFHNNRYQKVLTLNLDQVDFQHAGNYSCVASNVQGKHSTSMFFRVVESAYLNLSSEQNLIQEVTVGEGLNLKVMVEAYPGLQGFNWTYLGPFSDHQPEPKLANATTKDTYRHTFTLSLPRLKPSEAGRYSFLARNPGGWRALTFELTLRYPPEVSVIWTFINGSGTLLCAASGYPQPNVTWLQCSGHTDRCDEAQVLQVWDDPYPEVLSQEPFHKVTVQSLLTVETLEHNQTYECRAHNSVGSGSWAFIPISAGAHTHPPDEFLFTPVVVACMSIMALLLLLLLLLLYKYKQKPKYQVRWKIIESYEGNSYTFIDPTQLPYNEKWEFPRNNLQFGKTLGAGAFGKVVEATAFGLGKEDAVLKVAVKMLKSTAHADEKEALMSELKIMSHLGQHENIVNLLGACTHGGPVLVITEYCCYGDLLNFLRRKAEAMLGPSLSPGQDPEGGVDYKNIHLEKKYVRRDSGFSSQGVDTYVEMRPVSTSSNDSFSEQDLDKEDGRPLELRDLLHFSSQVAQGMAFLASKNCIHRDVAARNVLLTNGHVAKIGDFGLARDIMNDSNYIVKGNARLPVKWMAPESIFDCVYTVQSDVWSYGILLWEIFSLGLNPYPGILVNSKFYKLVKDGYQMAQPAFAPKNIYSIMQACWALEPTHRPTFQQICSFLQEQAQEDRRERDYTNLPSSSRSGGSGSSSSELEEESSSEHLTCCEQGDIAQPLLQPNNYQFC
UniProt P41240: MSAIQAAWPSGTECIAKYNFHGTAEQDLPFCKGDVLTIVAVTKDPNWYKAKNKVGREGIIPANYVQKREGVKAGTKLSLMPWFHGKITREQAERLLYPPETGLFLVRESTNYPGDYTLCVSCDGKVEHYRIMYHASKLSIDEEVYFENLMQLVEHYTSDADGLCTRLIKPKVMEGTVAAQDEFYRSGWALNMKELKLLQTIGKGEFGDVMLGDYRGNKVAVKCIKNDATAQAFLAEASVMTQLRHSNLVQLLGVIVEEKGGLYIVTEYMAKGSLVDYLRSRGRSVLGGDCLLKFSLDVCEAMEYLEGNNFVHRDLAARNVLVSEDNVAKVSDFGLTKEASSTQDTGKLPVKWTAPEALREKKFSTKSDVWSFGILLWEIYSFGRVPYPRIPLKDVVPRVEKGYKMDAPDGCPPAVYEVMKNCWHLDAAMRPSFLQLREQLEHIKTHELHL
UniProt P48729: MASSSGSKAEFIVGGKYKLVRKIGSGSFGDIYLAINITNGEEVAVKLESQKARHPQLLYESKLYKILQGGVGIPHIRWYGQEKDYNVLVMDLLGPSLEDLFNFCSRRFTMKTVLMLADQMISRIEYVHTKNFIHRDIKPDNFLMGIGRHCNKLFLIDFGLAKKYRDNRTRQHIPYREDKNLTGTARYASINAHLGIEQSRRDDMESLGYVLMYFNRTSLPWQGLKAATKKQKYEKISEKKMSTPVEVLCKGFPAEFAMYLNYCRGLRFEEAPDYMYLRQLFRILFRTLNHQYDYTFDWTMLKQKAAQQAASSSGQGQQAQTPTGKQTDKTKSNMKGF
UniProt P48730: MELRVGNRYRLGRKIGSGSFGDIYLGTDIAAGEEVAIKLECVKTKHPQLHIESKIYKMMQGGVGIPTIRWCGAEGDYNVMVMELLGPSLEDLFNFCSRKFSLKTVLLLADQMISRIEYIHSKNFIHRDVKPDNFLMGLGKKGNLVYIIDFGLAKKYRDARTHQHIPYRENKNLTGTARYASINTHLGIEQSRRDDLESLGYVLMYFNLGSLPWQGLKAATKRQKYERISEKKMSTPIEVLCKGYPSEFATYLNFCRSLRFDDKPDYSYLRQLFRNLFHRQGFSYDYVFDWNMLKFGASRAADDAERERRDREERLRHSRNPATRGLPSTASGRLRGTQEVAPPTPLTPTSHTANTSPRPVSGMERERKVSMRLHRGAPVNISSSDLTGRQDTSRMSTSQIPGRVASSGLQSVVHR
UniProt Q9Y463, whole entry, looked up: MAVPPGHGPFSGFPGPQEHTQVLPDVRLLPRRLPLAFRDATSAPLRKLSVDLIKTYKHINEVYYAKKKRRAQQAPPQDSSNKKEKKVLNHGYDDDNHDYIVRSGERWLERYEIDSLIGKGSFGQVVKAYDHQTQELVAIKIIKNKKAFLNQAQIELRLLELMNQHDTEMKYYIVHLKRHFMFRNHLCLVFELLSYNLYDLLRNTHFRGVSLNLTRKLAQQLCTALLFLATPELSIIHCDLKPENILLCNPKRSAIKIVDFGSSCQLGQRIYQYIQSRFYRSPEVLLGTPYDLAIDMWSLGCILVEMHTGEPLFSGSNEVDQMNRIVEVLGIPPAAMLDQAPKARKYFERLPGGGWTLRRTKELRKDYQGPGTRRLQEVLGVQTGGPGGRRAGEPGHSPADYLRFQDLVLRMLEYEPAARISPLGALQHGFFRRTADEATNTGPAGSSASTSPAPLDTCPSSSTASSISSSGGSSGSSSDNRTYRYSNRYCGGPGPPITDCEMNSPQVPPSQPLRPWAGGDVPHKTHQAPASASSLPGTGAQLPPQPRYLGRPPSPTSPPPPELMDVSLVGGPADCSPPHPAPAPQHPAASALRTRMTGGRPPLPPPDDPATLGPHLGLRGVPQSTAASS
UniProt Q92630: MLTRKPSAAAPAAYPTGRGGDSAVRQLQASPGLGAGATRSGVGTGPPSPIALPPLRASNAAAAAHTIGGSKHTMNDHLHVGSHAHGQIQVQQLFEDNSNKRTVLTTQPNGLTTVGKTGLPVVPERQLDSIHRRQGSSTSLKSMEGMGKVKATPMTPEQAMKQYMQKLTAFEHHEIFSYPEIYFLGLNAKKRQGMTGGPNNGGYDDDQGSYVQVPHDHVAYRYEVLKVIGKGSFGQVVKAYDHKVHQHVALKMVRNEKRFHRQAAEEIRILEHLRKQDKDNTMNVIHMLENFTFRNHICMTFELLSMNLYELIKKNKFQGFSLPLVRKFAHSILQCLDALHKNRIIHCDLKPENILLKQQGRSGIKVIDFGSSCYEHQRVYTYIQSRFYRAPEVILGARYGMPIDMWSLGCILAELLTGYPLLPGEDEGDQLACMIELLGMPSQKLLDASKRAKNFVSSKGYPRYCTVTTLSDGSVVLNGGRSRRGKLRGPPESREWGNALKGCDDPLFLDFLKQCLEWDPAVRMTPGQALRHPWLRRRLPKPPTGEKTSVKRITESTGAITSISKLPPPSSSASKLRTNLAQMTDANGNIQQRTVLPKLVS
UniProt P29317, whole entry: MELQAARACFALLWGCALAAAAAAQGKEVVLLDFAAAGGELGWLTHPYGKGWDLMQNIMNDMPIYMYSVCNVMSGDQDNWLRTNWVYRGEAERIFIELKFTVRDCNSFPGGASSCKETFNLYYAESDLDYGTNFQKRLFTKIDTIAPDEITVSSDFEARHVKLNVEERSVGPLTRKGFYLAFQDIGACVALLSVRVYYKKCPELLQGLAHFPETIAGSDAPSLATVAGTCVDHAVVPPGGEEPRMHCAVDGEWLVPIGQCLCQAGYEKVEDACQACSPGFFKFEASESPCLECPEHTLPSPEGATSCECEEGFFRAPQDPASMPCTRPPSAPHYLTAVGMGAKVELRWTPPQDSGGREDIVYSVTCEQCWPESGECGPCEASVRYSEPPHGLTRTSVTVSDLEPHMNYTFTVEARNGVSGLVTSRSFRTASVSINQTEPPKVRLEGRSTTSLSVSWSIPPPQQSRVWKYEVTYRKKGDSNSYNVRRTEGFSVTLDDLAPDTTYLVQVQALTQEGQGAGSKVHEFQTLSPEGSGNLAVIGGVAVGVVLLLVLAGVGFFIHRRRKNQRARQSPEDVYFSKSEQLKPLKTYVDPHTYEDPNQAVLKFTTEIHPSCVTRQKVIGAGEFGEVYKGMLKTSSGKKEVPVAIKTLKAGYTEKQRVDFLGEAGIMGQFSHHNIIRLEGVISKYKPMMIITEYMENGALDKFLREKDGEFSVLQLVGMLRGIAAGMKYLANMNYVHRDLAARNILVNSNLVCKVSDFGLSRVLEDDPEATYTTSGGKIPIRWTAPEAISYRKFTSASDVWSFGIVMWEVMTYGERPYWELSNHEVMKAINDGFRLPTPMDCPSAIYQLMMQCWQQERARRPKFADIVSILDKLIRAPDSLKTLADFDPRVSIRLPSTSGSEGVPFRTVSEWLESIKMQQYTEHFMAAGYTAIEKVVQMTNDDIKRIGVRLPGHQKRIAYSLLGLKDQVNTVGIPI
UniProt P21860, whole entry: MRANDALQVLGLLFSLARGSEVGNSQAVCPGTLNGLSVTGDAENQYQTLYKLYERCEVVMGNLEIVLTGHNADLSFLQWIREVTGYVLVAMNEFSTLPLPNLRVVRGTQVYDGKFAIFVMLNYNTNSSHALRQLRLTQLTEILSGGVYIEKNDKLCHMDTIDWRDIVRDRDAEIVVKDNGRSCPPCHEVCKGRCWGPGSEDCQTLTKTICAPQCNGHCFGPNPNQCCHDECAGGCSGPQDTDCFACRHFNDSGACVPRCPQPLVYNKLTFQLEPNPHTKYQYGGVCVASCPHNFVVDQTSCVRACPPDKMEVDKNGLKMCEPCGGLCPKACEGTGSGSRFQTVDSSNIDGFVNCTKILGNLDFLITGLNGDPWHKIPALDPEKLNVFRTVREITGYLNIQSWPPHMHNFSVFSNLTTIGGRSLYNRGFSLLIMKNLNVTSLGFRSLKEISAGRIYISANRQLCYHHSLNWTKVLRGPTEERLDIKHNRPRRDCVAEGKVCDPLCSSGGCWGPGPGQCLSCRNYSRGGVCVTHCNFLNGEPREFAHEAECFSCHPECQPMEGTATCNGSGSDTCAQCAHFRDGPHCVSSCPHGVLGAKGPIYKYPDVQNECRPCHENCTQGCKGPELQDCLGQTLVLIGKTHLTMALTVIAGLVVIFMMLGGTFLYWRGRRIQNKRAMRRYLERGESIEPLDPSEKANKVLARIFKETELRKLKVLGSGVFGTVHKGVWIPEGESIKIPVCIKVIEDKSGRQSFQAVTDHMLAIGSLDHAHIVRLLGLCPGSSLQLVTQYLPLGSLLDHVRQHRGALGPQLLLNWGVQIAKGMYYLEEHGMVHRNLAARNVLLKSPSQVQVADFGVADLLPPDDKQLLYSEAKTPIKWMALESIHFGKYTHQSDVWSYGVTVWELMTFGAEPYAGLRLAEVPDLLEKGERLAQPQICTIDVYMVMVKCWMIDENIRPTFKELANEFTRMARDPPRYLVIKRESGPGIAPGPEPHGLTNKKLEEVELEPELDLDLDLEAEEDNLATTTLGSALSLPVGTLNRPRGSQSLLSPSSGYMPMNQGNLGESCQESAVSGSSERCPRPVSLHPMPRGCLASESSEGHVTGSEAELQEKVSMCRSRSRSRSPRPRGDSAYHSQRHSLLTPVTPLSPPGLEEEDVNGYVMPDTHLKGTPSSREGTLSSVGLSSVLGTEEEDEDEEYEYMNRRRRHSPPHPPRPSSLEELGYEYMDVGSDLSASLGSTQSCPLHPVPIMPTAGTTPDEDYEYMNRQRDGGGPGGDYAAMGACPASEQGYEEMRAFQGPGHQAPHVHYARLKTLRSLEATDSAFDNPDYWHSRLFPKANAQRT

Measured: kinase-Nluc reporter destabilization hit call

O=c1[nH]c(=O)n([C@@H]2O[C@H](CO)[C@@H](O)[C@@H]2O)cc1/C=C/Br [Sorivudine] (10 µM)
inactive: CDK7 = 0 | CDK9 = 0 | CHEK2 = 0 | CSF1R 0 | CSK 0 | CSNK1A1 = 0 | CSNK1D 0 | DDR1 = 0 | DYRK1B 0 | DYRK2 = 0 | EGFR 0 | EGFR_G719S 0 | EGFR_G719S_T790M 0 | EGFR_L718V 0 | EGFR_L858R 0 | EGFR_L861Q 0 | EGFR_T790M 0 | EPHA2 = 0 | ERBB3 = 0 | [1] 0

COc1cc2c(cc1OC)CN(S(=O)(=O)c1ccc(OC)c(N3CCN(C(=O)c4ccc(F)cc4C(F)(F)F)CC3)c1)CC2 (10 µM)
inactive: CDK7 = 0 | CDK9 = 0 | CHEK2 = 0 | CSF1R 0 | CSK 0 | CSNK1A1 = 0 | CSNK1D 0 | DDR1 = 0 | DYRK1B 0 | DYRK2 = 0 | EGFR 0 | EGFR_G719S 0 | EGFR_G719S_T790M 0 | EGFR_L718V 0 | EGFR_L858R 0 | EGFR_L861Q 0 | EGFR_T790M 0 | EPHA2 = 0 | ERBB3 = 0 | [1] 0

FC(F)(c1ccc2ncccc2c1)c1nnc2ccc(-c3ccncc3)nn12 (10 µM)
inactive: CDK7 = 0 | CDK9 = 0 | CHEK2 = 0 | CSF1R 0 | CSK 0 | CSNK1A1 = 0 | CSNK1D 0 | DDR1 = 0 | DYRK1B 0 | DYRK2 = 0 | EGFR 0 | EGFR_G719S 0 | EGFR_G719S_T790M 0 | EGFR_L718V 0 | EGFR_L858R 0 | EGFR_L861Q 0 | EGFR_T790M 0 | EPHA2 = 0 | ERBB3 = 0 | [1] 0

NC(=O)c1nnc(N[C@@H]2CCCC[C@@H]2N)nc1Nc1cccc2cc[nH]c12 (10 µM)
inactive: CDK7 = 0 | CDK9 = 0 | CHEK2 = 0 | CSF1R 0 | CSK 0 | CSNK1A1 = 0 | CSNK1D 0 | DDR1 = 0 | DYRK1B 0 | DYRK2 = 0 | EGFR 0 | EGFR_G719S 0 | EGFR_G719S_T790M 0 | EGFR_L718V 0 | EGFR_L858R 0 | EGFR_L861Q 0 | EGFR_T790M 0 | EPHA2 = 0 | ERBB3 = 0 | [1] 0

Cc1cc(Nc2ncnc3ccc(NC4=NC(C)(C)CO4)cc23)ccc1Oc1ccn2ncnc2c1 [Tucatinib] (2.5 µM)
inactive: CDK7 = 0 | CDK9 = 0 | CHEK2 = 0 | CSF1R 0 | CSK 0 | CSNK1A1 = 0 | CSNK1D 0 | DDR1 = 0 | DYRK1B 0 | DYRK2 = 0 | EGFR 0 | EGFR_G719S 0 | EGFR_G719S_T790M 0 | EGFR_L718V 0 | EGFR_L858R 0 | EGFR_L861Q 0 | EGFR_T790M 0 | EPHA2 = 0 | ERBB3 = 0 | [1] 0

CCCCCCCCCCCCC/C=C/[C@@H](O)[C@@H](N)CO [D-erythro-Sphingosine] (2.5 µM)
inactive: CDK7 = 0 | CDK9 = 0 | CHEK2 = 0 | CSF1R 0 | CSK 0 | CSNK1A1 = 0 | CSNK1D 0 | DDR1 = 0 | DYRK1B 0 | DYRK2 = 0 | EGFR 0 | EGFR_G719S 0 | EGFR_G719S_T790M 0 | EGFR_L718V 0 | EGFR_L858R 0 | EGFR_L861Q 0 | EGFR_T790M 0 | EPHA2 = 0 | ERBB3 = 0 | [1] 0

CCN1CCN(Cc2ccc(Nc3ncc(F)c(-c4cc(F)c5nc(C)n(C(C)C)c5c4)n3)nc2)CC1 [Abemaciclib] (2 µM)
inactive: CDK7 = 0 | CDK9 = 0 | CHEK2 = 0 | CSF1R 0 | CSK 0 | CSNK1A1 = 0 | CSNK1D 0 | DDR1 = 0 | DYRK1B 0 | DYRK2 = 0 | EGFR 0 | EGFR_G719S 0 | EGFR_G719S_T790M 0 | EGFR_L718V 0 | EGFR_L858R 0 | EGFR_L861Q 0 | EGFR_T790M 0 | EPHA2 = 0 | ERBB3 = 0 | [1] 0

CC(=O)NC1CC(n2cnc(NC(=O)Cc3ccc4ccccc4c3)c2)C1 (stereo not given) (10 µM)
inactive: CDK7 = 0 | CDK9 = 0 | CHEK2 = 0 | CSF1R 0 | CSK 0 | CSNK1A1 = 0 | CSNK1D 0 | DDR1 = 0 | DYRK1B 0 | DYRK2 = 0 | EGFR 0 | EGFR_G719S 0 | EGFR_G719S_T790M 0 | EGFR_L718V 0 | EGFR_L858R 0 | EGFR_L861Q 0 | EGFR_T790M 0 | EPHA2 = 0 | ERBB3 = 0 | [1] 0

Cc1ccc2nc(NCCN)c3ncc(C)n3c2c1 (2.5 µM)
inactive: CDK7 = 0 | CDK9 = 0 | CHEK2 = 0 | CSF1R 0 | CSK 0 | CSNK1A1 = 0 | CSNK1D 0 | DDR1 = 0 | DYRK1B 0 | DYRK2 = 0 | EGFR 0 | EGFR_G719S 0 | EGFR_G719S_T790M 0 | EGFR_L718V 0 | EGFR_L858R 0 | EGFR_L861Q 0 | EGFR_T790M 0 | EPHA2 = 0 | ERBB3 = 0 | [1] 0

Cc1ccc2cc(-c3c(C)ccc(C(=O)c4c(-c5ccccc5)n(C)n(-c5ccccc5)c4=O)c3N)ccc2n1 (2.5 µM)
inactive: CDK7 = 0 | CDK9 = 0 | CHEK2 = 0 | CSF1R 0 | CSK 0 | CSNK1A1 = 0 | CSNK1D 0 | DDR1 = 0 | DYRK1B 0 | DYRK2 = 0 | EGFR 0 | EGFR_G719S 0 | EGFR_G719S_T790M 0 | EGFR_L718V 0 | EGFR_L858R 0 | EGFR_L861Q 0 | EGFR_T790M 0 | EPHA2 = 0 | ERBB3 = 0 | [1] 0

COc1cccc(OC)c1C(=O)OCc1cc(O)ccc1O[C@@H]1O[C@H](CO)[C@@H](O)[C@H](O)[C@H]1O [Curculigoside] (10 µM)
inactive: CDK7 = 0 | CDK9 = 0 | CHEK2 = 0 | CSF1R 0 | CSK 0 | CSNK1A1 = 0 | CSNK1D 0 | DDR1 = 0 | DYRK1B 0 | DYRK2 = 0 | EGFR 0 | EGFR_G719S 0 | EGFR_G719S_T790M 0 | EGFR_L718V 0 | EGFR_L858R 0 | EGFR_L861Q 0 | EGFR_T790M 0 | EPHA2 = 0 | ERBB3 = 0 | [1] 0

CCc1c(C(=O)NNC(=O)C(O)c2cc(F)cc(F)c2)ccc(O)c1C (stereo not given) (10 µM)
inactive: CDK7 = 0 | CDK9 = 0 | CHEK2 = 0 | CSF1R 0 | CSK 0 | CSNK1A1 = 0 | CSNK1D 0 | DDR1 = 0 | DYRK1B 0 | DYRK2 = 0 | EGFR 0 | EGFR_G719S 0 | EGFR_G719S_T790M 0 | EGFR_L718V 0 | EGFR_L858R 0 | EGFR_L861Q 0 | EGFR_T790M 0 | EPHA2 = 0 | ERBB3 = 0 | [1] 0

Nc1ccc(-c2cnc(N)c(-c3ccc(Cl)cc3)c2)cn1 (10 µM)
inactive: CDK7 = 0 | CDK9 = 0 | CHEK2 = 0 | CSF1R 0 | CSK 0 | CSNK1A1 = 0 | CSNK1D 0 | DDR1 = 0 | DYRK1B 0 | DYRK2 = 0 | EGFR 0 | EGFR_G719S 0 | EGFR_G719S_T790M 0 | EGFR_L718V 0 | EGFR_L858R 0 | EGFR_L861Q 0 | EGFR_T790M 0 | EPHA2 = 0 | ERBB3 = 0 | [1] 0

CCNc1nc(Nc2cc(F)c(C(=O)N3CCOCC3)cc2OC)ncc1C(F)(F)F [GNE-7915 (tosylate)] (10 µM)
inactive: CDK7 = 0 | CDK9 = 0 | CHEK2 = 0 | CSF1R 0 | CSK 0 | CSNK1A1 = 0 | CSNK1D 0 | DDR1 = 0 | DYRK1B 0 | DYRK2 = 0 | EGFR 0 | EGFR_G719S 0 | EGFR_G719S_T790M 0 | EGFR_L718V 0 | EGFR_L858R 0 | EGFR_L861Q 0 | EGFR_T790M 0 | EPHA2 = 0 | ERBB3 = 0 | [1] 0

Reprinted at random: 2 records from the list
Cc1ccc2cc(-c3c(C)ccc(C(=O)c4c(-c5ccccc5)n(C)n(-c5ccccc5)c4=O)c3N)ccc2n1 (2.5 µM)
inactive: CDK7 = 0 | CDK9 = 0 | CHEK2 = 0 | CSF1R 0 | CSK 0 | CSNK1A1 = 0 | CSNK1D 0 | DDR1 = 0 | DYRK1B 0 | DYRK2 = 0 | EGFR 0 | EGFR_G719S 0 | EGFR_G719S_T790M 0 | EGFR_L718V 0 | EGFR_L858R 0 | EGFR_L861Q 0 | EGFR_T790M 0 | EPHA2 = 0 | ERBB3 = 0 | [1] 0

COc1cccc(OC)c1C(=O)OCc1cc(O)ccc1O[C@@H]1O[C@H](CO)[C@@H](O)[C@H](O)[C@H]1O [Curculigoside] (10 µM)
inactive: CDK7 = 0 | CDK9 = 0 | CHEK2 = 0 | CSF1R 0 | CSK 0 | CSNK1A1 = 0 | CSNK1D 0 | DDR1 = 0 | DYRK1B 0 | DYRK2 = 0 | EGFR 0 | EGFR_G719S 0 | EGFR_G719S_T790M 0 | EGFR_L718V 0 | EGFR_L858R 0 | EGFR_L861Q 0 | EGFR_T790M 0 | EPHA2 = 0 | ERBB3 = 0 | [1] 0

Following part:

O=C(CSC1=NCCN1)NC1CCCCCC1 [ICCB-19 (hydrochloride)] (2.5 µM)
inactive: CDK7 = 0 | CDK9 = 0 | CHEK2 = 0 | CSF1R 0 | CSK 0 | CSNK1A1 = 0 | CSNK1D 0 | DDR1 = 0 | DYRK1B 0 | DYRK2 = 0 | EGFR 0 | EGFR_G719S 0 | EGFR_G719S_T790M 0 | EGFR_L718V 0 | EGFR_L858R 0 | EGFR_L861Q 0 | EGFR_T790M 0 | EPHA2 = 0 | ERBB3 = 0 | [1] 0

From the supplement of paper PMC12823440, “Inhibitors supercharge kinase turnover through native proteolytic circuits” (Nature, 2025)
